Earlier results on 1 compound are cited in publication PMC8536575, “Acute effects of the imidacloprid metabolite desnitro-imidacloprid on human nACh receptors relevant for neuronal signaling” (Archives of Toxicology, 2021).

For this data set the following is noted: human, in vivo; cited from earlier work.

As for `CC(C)NCC(O)COc1ccc(CC(N)=O)cc1` (centres unmarked) [Atenolol, atenolol], the “reported mean AUC” value is 3534 ng·h/mL and the “reported mean Cmax” value was 409.3 ng/mL.
